Laboratory results published in publication PMC12800062.

Target: T1, TGFBR3 (mouse (in primary FAPs from C57BL/6 mice)) (UniProt O88393)
T1 sequence: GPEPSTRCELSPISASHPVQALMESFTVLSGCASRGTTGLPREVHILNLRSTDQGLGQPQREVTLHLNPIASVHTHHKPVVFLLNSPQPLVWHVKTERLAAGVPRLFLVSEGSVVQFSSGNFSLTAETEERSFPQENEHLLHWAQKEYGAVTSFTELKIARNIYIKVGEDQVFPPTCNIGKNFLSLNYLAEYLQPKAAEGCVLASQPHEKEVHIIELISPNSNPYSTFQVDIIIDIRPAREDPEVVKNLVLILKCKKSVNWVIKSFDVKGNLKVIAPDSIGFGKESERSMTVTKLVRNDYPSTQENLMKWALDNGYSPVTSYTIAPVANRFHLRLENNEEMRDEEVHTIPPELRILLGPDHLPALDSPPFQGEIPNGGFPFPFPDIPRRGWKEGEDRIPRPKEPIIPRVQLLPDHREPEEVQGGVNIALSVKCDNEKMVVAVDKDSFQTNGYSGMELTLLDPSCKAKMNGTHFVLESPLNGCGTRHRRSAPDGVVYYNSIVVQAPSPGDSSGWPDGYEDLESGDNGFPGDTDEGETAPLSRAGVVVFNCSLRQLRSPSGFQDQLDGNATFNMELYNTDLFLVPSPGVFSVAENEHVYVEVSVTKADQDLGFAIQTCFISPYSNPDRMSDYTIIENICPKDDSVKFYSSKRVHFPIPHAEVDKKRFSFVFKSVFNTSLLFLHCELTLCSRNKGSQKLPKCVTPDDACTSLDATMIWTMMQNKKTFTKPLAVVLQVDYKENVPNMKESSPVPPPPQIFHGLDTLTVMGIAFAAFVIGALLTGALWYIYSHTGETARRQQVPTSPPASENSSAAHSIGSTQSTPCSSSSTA
Experiment: affinity purification with mass spectrometry; CoIP of TGFBR3 from FAPs followed by LC-MS to screen for candidates that bind TGFBR3

B1: KRT10 (protein, UniProt P02535 1-570)
chain: MSVLYSSSSKQFSSSRSGGGGGGGSVRVSSTRGSLGGGYSSGGFSGGSFSRGSSGGGCFGGSSGGYGGFGGGGSFGGGYGGSSFGGGYGGSSFGGGYGGSSFGGAGFGGGGSFGGGSFGGGSYGGGFGGGGFGGDGGSLLSGNGRVTMQNLNDRLASYMDKVRALEESNYELEGKIKEWYEKHGNSSQREPRDYSKYYKTIEDLKGQILTLTTDNANVLLQIDNARLAADDFRLKYENEVTLRQSVEADINGLRRVLDELTLSKSDLEMQIESLNEELAYLKKNHEEEMRDLQNVSTGDVNVEMNAAPGVDLTQLLNNMRNQYEQLAEKNRKDAEEWFNQKSKELTTEIDSNIEQMSSHKSEITELRRTVQGLEIELQSQLALKQSLEASLAETEGRYCVQLSQIQSQISALEEQLQQIRAETECQNAEYQQLLDIKTRLENEIQTYRSLLEGEGSSSGGGGGRRGGSGGGSYGGSSGGGSYGGSSGGGGSYGGSSGGGGSYGGGSSGGGSHGGSSGGGYGGGSSSGGAGGHGGSSGGGYGGGSSSGGQGGSGGFKSSGGGDQSSKGPRY
Q: For B1, which binding is on record?
A: Its binding is “binds”.

These are yes or no findings as the source states them, for the method shown. Binding seen in cells or lysates may run through a third protein. These calls come from enrichment with a bait or labelling near it, and not all partners need be listed.
